The target of test [1] is galectin-3 (human (endogenous in SKOV3)) (UniProt P17931). Description: co-IP; endogenous proteins in SKOV3 lysate (RIPA buffer); A/G agarose beads coated with antibodies against galectin-3, Notch1 or activated Notch1 (NICD1); western blot; mouse/rabbit IgG as negative control.
The target of test [2] is Flag-galectin-3 amino acids 111-250 (carbohydrate recognition domain) (UniProt P17931). Description: co-IP; A2780 cells transfected with Flag-galectin-3 domains; lysate precipitated with anti-FLAG on A/G agarose beads; NICD1 detected by western blot.
For test [3], the target named is Notch1 (human (endogenous in SKOV3)) (UniProt P46531). Description: co-IP; endogenous proteins in SKOV3 lysate (RIPA buffer); A/G agarose beads coated with antibodies against galectin-3, Notch1 or activated Notch1 (NICD1); western blot; mouse/rabbit IgG as negative control.

Amino acid sequences for entries named in this document (tags omitted). A change or cut given only in a name is not applied to a line headed by its entry. Residues count along the entry.
UniProt P17931: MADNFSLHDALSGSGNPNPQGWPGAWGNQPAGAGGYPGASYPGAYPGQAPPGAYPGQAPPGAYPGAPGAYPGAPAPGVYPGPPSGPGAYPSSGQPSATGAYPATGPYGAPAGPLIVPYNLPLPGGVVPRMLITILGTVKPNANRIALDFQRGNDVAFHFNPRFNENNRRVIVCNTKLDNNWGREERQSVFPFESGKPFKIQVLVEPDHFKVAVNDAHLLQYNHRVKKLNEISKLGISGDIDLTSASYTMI
Flag-galectin-3 amino acids 111-250 (carbohydrate recognition domain): residues 111-250 of P17931
UniProt P46531: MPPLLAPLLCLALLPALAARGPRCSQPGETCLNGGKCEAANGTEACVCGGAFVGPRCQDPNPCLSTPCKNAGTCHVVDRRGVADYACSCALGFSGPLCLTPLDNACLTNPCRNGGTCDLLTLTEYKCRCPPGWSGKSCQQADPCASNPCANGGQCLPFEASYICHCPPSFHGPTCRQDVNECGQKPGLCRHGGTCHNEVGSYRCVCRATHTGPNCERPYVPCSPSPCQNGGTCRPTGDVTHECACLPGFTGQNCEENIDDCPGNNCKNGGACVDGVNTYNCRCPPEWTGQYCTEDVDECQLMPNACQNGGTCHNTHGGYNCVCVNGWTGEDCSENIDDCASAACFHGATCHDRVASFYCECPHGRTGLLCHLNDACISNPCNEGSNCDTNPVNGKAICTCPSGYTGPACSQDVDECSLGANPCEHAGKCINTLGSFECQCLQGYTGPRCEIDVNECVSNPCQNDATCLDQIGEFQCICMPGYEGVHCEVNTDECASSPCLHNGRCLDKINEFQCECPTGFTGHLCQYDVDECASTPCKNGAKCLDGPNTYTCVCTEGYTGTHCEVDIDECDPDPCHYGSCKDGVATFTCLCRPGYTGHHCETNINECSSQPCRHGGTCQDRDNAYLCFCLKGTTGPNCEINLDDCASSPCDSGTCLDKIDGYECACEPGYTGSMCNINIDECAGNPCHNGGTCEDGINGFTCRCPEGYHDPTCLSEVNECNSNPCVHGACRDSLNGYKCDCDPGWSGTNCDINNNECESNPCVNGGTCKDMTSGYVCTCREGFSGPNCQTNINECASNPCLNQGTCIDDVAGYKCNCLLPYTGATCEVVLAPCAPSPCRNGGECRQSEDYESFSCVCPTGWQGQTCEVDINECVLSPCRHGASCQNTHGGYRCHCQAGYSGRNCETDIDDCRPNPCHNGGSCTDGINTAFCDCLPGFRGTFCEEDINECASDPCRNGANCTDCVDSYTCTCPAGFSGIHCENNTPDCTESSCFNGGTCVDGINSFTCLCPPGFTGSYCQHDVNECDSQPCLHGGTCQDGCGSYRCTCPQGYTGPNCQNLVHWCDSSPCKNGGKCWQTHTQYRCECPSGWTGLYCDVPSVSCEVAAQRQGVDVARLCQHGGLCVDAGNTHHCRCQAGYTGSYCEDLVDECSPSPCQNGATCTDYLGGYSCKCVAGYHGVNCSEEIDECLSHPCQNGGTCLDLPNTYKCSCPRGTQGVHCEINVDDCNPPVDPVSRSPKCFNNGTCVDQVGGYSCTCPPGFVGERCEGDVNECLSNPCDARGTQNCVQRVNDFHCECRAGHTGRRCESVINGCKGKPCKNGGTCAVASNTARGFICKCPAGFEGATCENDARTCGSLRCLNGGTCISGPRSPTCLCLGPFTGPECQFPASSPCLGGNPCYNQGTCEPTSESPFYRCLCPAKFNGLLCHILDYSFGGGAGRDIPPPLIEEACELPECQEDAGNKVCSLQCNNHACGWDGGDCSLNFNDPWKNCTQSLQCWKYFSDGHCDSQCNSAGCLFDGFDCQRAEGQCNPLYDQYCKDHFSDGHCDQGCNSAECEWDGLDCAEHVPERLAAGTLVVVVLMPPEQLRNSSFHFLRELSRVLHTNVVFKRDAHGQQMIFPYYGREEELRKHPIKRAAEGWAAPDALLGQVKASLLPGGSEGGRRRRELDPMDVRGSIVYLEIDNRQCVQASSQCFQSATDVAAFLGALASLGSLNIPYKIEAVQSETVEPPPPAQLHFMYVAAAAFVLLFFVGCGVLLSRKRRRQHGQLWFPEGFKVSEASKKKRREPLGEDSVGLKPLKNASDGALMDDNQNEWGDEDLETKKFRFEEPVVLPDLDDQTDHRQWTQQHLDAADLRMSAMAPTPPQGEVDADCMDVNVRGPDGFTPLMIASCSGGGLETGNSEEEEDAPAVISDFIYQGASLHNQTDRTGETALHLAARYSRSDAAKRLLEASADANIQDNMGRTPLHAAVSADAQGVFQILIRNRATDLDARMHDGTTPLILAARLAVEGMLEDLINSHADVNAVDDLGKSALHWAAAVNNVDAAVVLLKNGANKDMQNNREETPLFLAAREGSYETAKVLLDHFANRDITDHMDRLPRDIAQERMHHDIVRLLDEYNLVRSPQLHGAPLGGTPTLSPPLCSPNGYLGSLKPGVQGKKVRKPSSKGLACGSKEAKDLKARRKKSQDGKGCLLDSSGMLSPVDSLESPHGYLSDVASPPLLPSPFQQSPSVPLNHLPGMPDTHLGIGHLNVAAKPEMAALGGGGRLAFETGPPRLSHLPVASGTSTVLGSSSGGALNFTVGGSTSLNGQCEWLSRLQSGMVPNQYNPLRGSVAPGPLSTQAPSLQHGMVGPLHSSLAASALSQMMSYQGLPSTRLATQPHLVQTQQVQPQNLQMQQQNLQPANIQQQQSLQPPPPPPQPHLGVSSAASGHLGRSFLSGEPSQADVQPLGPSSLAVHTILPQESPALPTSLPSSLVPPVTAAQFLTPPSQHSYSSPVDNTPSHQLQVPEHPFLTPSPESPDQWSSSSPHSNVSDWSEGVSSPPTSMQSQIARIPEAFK
Notch1 (human (endogenous in SKOV3)): residues 19-2555 of P46531

Results are given in words; binding and its absence hold for the method and conditions named. In cells and extracts the contact can be indirect. Some results given as binding are weak or reduced against the parent protein; the word gives no strength.

For the substance “Notch1 intracellular domain (NICD1) (from UniProt P46531 1754-2555) (domain or fragment)”, the binding entry in test [1] and in test [2] was “binds” throughout.

As to “Notch1 (from UniProt P46531 19-2555) (receptor)”, in test [1], the binding result is on record as “binds”.

Consider galectin-3 (from UniProt P17931 1-250), for which the binding result in test [3] is listed as “binds”.

The record behind these values is PMC5356551.
